Measurements reported in US20190352404A1.
Where a chain is given by its changes, count along the chain named. No constants are given. Whether binding was seen depends on the method and setting. Some results given as binding are weak or reduced against the parent protein; the word gives no strength.

By UniProt entry, the sequences of proteins in these tests, tags left out. Where a name states a change or a piece, a line headed by the entry shows the natural chain unless it says otherwise.
UniProt Q9NZQ7: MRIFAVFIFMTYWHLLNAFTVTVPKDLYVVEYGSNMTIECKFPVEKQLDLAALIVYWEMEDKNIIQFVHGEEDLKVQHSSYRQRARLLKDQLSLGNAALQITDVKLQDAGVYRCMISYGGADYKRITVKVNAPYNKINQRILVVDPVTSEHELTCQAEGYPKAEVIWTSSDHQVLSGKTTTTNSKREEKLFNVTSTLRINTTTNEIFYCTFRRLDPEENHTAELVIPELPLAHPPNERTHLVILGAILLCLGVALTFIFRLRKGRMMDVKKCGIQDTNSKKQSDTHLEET

Legend:
hPD-L1-Fc (human) [1] = biological target: hPD-L1-Fc (human) (UniProt Q9NZQ7); assay: BLI
hPD-L1-Fc (human) [2] = biological target: hPD-L1-Fc (human) (UniProt Q9NZQ7); assay: BLI (FIG. 8)
hPD-L1-Fc (human) [3] = biological target: hPD-L1-Fc (human) (UniProt Q9NZQ7); assay: BLI, hPD-L1-Fc on AHC sensor, chimera at high and low concentrations
hPD-L1-Fc (human) [4] = biological target: hPD-L1-Fc (human) (UniProt Q9NZQ7); assay: BLI (ForteBio Octet), hPD-L1-Fc immobilised on AHC sensor, m7 in solution at two concentrations not printed on the sheet
hPD-L1-Fc (human) [5] = biological target: hPD-L1-Fc (human) (UniProt Q9NZQ7); assay: BLI, hPD-L1-Fc on AHC sensor

B1: chimeric sdAb m7 (VHH, not shown: small tags and cut ends)
VHH: QVQLQESGGGSVQAGGSLRLSCAASRYTASSNCMAWFRQAPGKEREGVATIYNGGGSTAYADSVKGRFTISQDNAKNTVYLQMNSLKPEDTAMYYCGAGSPRFCASDSFEDPTCTLVTSSGAFQYWGQGTQVTVSS
- binding (hPD-L1-Fc (human) [1]): binds
- binding (hPD-L1-Fc (human) [2]): binds
- binding (hPD-L1-Fc (human) [3]): binds
- binding (hPD-L1-Fc (human) [4]): binds

B2: KN035 sdAb mutant 1 (VHH, not shown: small tags and cut ends)
VHH: QVQLQESGGGSVQAGGSLRLSCAASGKMSSRRCMGWFRQAPGKERVGVAAIDSDGTTKYADSMKGRFTISKDNAKNTLDLQMNSLKPEDTAMYYCVADSFEDPTCTLVTSSGAFQYRGQGTQVTVSS
- binding (hPD-L1-Fc (human) [5]): binds

B3: KN035 sdAb mutant 2 (VHH, not shown: small tags and cut ends)
VHH: B2 VHH with E44Q, A50T, K58R, A60V, M63V, V96A
- binding (hPD-L1-Fc (human) [5]): binds
